Sequences and labels used below:
B1: il2ra_site2_3nfp_normal_mot_HHH_b1_03818_000000217_0001_1_20_H_._HHH_b2_04788_0001_0000100003_0000001_0 (protein)
chain: SSSSDLEEEALKLLIEAYKLAKEGNPEEARKLLERAEELAEEGGDEELLRLIELALEAFEDSSSS
B2: il2ra_site1_2b5i_normal_mot_a7d4ab743ae57deeac5d741f7278d18b_0001_af2_000000162_0001_36_49_H_._HHH_b2_01797_af2_0001_0000300004_0000001_0_af2pred_dldesign_0_af2 … (protein)
chain: SSSSSPESEEALEAAKRAMEAAHASGDAVLLYRVYKLAKKMLERLEDAEAVAALEEHYARLSSSS
B3: il2ra_site2_3nfp_sap_21_mot_HHH_b1_04032_000000208_0001_43_56_H_._HHH_b2_02520_af2_0001_0000400008_0000001_0_0001_af2pred_0001_1_af2pred_swapped (protein)
chain: SSSSSEEVEELIERVEELLKKGDVEEAHRVLRRAAKLAREAGDEELLEELWRLLELVRRLESSSS
B4: il2ra_site1_2b5i_normal_mot_HHH_b1_01495_af2_000000272_0001_42_56_H_._HHH_b1_03931_0001_0000200011_0000001_0 (protein)
chain: SSSSSSEEFEEVFEKARKIAEELNNPSAERFVELARESYEEDGDPRVLEDLEFMLERLEKSSSSS
B5: il2ra_site1_3nfp_sap_13_mot_HHH_b1_07440_af2_000000266_0001_1_19_H_._HHH_b2_07874_af2_0001_0000100006_0000001_1_0001_af2pred_0001_af2pred_1 (protein)
chain: DELEERVRELAEKGDNIQVAKLLDEVKRRVARGEIPPEDLRELLRIVLELLGDPAVEFMLRLVEE
B6: il2ra_site1_3nfp_sap_11_mot_HHH_b1_00630_af2_000000193_0001_42_55_H_._9d49f0d3562fbcf9434e2f7f4344708e_0001_0001_0000100002_0000001_0_0001_af2pred_0001_af2pred_ … (protein)
chain: SSSSDEARRAEELVKEISRLNLEGDPEKARELLRELEEIAKKLNSPIAELLVRRLEREIESSSSS
B7: il2ra_site2_2erj_sap_20_mot_HHH_b2_01275_af2_000000073_0001_23_39_H_._HHH_b2_07682_0001_0000700054_0000001_0_0001 (protein)
chain: SSSSNEELRELYELANEVMELAARGNPEEAEKVAEEAEELAKKLNSENAEEHLKALRKRLSSSSS
B8: il2ra_site2_3nfp_sap_20_mot_HHH_b1_01819_af2_000000097_0001_1_20_H_._640647f06b73f3c3f2841c6adbc5d152_0001_af2_0001_0000700025_0000001_0_0001 (protein)
chain: SSSSDEFKERAKRMIEAVIRSLRSLGDEETLERVEELLEQFEKEGDPRYALRIYELALEAYSSSS
B9: il2ra_site1_2b5i_normal_mot_f5ff40796168375b462bec8614a1db4a_0001_1_000000138_0001_53_65_H_._HHH_b2_04240_0001_0000100003_0000001_0 (protein)
chain: SSSSSTVEESVRDLLEEAQERYKEGDEERVRSILHLARASARRYNDEEAEELIKEVEEELSSSSS
B10: il2ra_site1_2b5i_normal_mot_0e5a94e4a5addaac739760efb25f0f5d_0001_000000246_0001_18_32_H_._HHH_b2_02424_0001_0000100006_0000001_0_af2pred_0001_af2pred_1 (protein)
chain: SSSSDDEERRKLRIVARAIFVLLAEGDEELVKELEELDRRASESGDPKYLEEALRLAEEILSSSS
B11: il2ra_site1_2b5i_normal_mot_f5ff40796168375b462bec8614a1db4a_0001_1_000000138_0001_53_65_H_._HHH_b1_06846_0001_0000400019_0000001_0 (protein)
chain: SSSSSNAEELAEELLEEAERLIEQGNEKEARSILHLARAVARRAGNEELLRRIEELLRELSSSSS
B12: il2ra_site2_2erj_normal_mot_HHH_b1_08185_000000063_0001_41_55_H_._HHH_b1_06795_af2_0001_0000100001_0000001_0 (protein)
chain: SSSSSEEEEELKRFIEELVREFGLSEEEKEKLEESARVALQAGLNVELIKRYLELAAEDSSSSSS
B13: il2ra_site2_3nfp_normal_mot_HHH_b1_00015_000000185_0001_19_35_H_._HHH_b1_07886_af2_0001_0000100002_0000001_0 (protein)
chain: SSSSSSEEVEKLLEEARELLEEGNPEEAHEVLSRAALIAYELGDQELWLKVAELILEILRSSSSS
B14: il2ra_site1_3nfp_normal_mot_HHH_b1_01159_af2_000000107_0001_1_20_H_._HHH_b1_07692_af2_0001_0000400008_0000001_0 (protein)
chain: SSSSNESEELERLFRRLFELAQNNDEEELEKLLEELEKLAEELNNRVAQIAVEQAKRILRSSSSS
B15: il2ra_site1_2b5i_sap_13_mot_HHH_b1_05658_000000212_0001_1_19_H_._c5c5405774e46e68d219586b833d645f_0001_0001_0000200008_0000001_1_0001_af2pred_0001_af2pred (protein)
chain: SSSSDLRREVLELLREADELFKKGDPEQAREVLEEARELAEKLNSPSLRRLIEAALRQIESSSSS
B16: il2ra_site2_2erj_sap_19_mot_HHH_b2_01275_af2_000000073_0001_23_39_H_._HHH_b1_03567_af2_0001_0000100005_0000001_0_0001 (protein)
chain: SSSSSEELEELYELANRLTHAVHNNDPEEVRELFRELEELAEEFGSDNVREIAEALLRKIESSSS
B17: il2ra_site1_3nfp_sap_17_mot_283d32d1de96e0fd5fa90eda9d1788c9_0001_1_000000176_0001_17_32_H_._HHH_b2_01367_0001_0000500039_0000001_1_0001_af2pred_0001_af2pred_1 (protein)
chain: SSSSDESEELLEEAERLLEELLEEGDPEEALKVAEHYARLLRELGDYEAAERLLKAALEKSSSSS
B18: il2ra_site2_3nfp_sap_34_mot_HHH_b2_03235_000000174_0001_1_18_H_._82834fc24cc795dc99f6b4b83d3129f3_0001_0001_0000100001_0000001_0_0001 (protein)
chain: SSSSSSDVEELLEEAERALEEGDKLEAAQLIVEASELAARRNDPELARLVLELYKKLKSSSSSSS
B19: il2ra_site2_2erj_sap_20_mot_HHH_b1_04373_af2_000000118_0001_18_33_H_._HHH_b2_06818_0001_0000300019_0000001_0_0001 (protein)
chain: SSSSDEVEKLLEEAEELLEEGDPEKAWEVLRRAATLAFRLGDFEAFNEIAELLREIAQRLASSSS
B20: il2ra_site2_2erj_normal_mot_HHH_b1_05749_af2_000000086_0001_23_39_H_._HHH_b2_01918_0001_0000200007_0000001_0 (protein)
chain: SSSSDELEEEVEELLEEVRRAYEEGDLEEAYRLAVRVFALAAENNDPELQRAVTRLLEELSSSSS
B21: il2ra_site2_2erj_normal_mot_HHH_b2_05804_000000098_0001_44_58_H_._HHH_b2_04229_af2_0001_0000800015_0000001_0 (protein)
chain: SSSSSDERELWERVAELLARAAHIEDEEEVEELLEEAERLAREANNPFLRRYVEFARRTFSSSSS
B22: il2ra_site2_2erj_normal_mot_HHH_b2_06291_af2_000000033_0001_23_39_H_._4949e777cf0084a35dc4178a1d33e300_0001_0001_0000300010_0000001_0 (protein)
chain: SVLTIIIELVSKNPDDEALRIAYAALAAKKQGDPEALKHLQELLEELEEEGDPSAEEALRLLEEG
B23: il2ra_site1_3nfp_sap_20_mot_HHH_b2_05178_af2_000000174_0001_1_19_H_._HHH_b2_01749_0001_0001100031_0000001_1_0001_af2pred_0001_af2pred_1_swapped (protein)
chain: SSSSSREEIRRLIEEALRLAFNGNPEEAKKLLEEALRLAEEENDEKLFRIVERDLRSLEGSSSSS
B24: il2ra_site1_3nfp_sap_13_mot_HHH_b1_01159_af2_000000075_0001_1_20_H_._HHH_b2_08011_af2_0001_0000600042_0000001_0_0001 (protein)
chain: DKILEWLLRQLKENVPDPEKAARRLIESVAQAANVPPEEAIKFLRELAQELGDEELEEILRELLK

The other results are listed elsewhere or left out.

The source of these data is article PMC10163288.

This assay addresses il2ra, P01589. Nature of the assay: yeast display titration.
The term apparent Kd denotes a dissociation constant that holds for the conditions of the assay. Turning to B1, the “apparent Kd” value is “inactive: no binding seen”. In the case of B2 it was “inactive: no binding seen”; in that of B3, “inactive: no binding seen”; in that of B4, “inactive: no binding seen”.

As for B5, the “apparent Kd” value was “inactive: no binding seen”. The value for B6 was inactive: > 0.711 µM; that for B7 was “inactive: no binding seen”; that for B8 was “inactive: no binding seen”. In the case of B9 it was “inactive: no binding seen”; in that of B10, “inactive: no binding seen”. B11: the “apparent Kd” value was “inactive: no binding seen”. On to B12, for which the “apparent Kd” value is “inactive: no binding seen”. As to B13, the “apparent Kd” value was “inactive: no binding seen”. As to B14, the “apparent Kd” value was “inactive: no binding seen”.

Turning to B15, the “apparent Kd” value is “inactive: no binding seen”. The value for B16 was “inactive: no binding seen”; that for B17 was “inactive: no binding seen”. On to B18, for which the “apparent Kd” value is “inactive: no binding seen”. The value for B19 was “inactive: no binding seen”. The value for B20 was “inactive: no binding seen”. In the case of B21 it was “inactive: no binding seen”.

Take B22: the “apparent Kd” value is “inactive: no binding seen”. The value for B23 was “inactive: no binding seen”. The value for B24 was “inactive: no binding seen”.
